Reference: patent US5624902A, “Peptide inhibitors of calmodulin” (Torrey Pines Institute for Molecular Studies, priority 1995, dated 1997)
The name of at least one read-out is uncertain. Square brackets hold non-standard residues; d marks the D form. Peptide text beside a SMILES is read from it.

Biological target: calmodulin (Homo sapiens, UniProt P0DP23)
Test: calcium-dependent phosphodiesterase assay (inhibition of calmodulin activity)
Format: biochemical
Conditions: inhibition of calmodulin activation of phosphodiesterase at 50 μM peptide; PDE without calmodulin = 100%, Calmo = 0%

Q: With `CC[C@@H](C)[C@@H](NC(=O)[C@@H](Cc1c[nH]c2ccccc12)NC(=O)[C@@H](CC(C)C)NC(C)=O)C(=O)N[C@@H](C(=O)N[C@H](Cc1c[nH]cn1)C(=O)N[C@H](CCCNC(=N)N)C(N)=O)[C@H](C)CC` [Ac-(D)Leu-(D)Trp-(D)Ile-(D)Ile-(D)His-(D)Arg-NH2] (Ac-[dL][dW][dI][dI][dH][dR]-NH2) as the molecule, how does the “% Inhibition” value read?
A: 78.95%
